For at least one entry, the source does not settle the construct or the ends of the probe. Weaker means in comparison with the reference protein, sequence or condition of that experiment. Where a protein sequence is shown, tags need not be part of it.
Target: T1, HipA (Escherichia coli) (UniProt P23874)
T1 sequence (looked up, limits assumed): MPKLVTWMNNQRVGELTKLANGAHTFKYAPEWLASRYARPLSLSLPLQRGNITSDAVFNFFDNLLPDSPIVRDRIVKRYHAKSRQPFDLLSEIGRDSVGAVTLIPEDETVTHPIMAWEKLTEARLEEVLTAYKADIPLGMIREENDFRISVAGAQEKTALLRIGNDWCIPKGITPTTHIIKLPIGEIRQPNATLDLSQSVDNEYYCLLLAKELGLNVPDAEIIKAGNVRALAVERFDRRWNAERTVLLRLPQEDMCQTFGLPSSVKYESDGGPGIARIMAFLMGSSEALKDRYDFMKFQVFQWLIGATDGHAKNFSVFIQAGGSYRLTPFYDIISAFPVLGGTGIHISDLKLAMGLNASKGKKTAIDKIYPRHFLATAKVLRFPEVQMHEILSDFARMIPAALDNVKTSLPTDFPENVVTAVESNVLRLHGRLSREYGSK
Assay: fluorescence polarization
Conditions: no HipB, linear, nonspecific DNA binding; 20 mM Tris-HCl pH 7.5, 100 mM NaCl, 5% glycerol, 10 C, 1 nM labeled DNA; recombinant protein; protein details: His6 (Ni-NTA purified, pET28a); label: 5'-6-carboxyfluorescein on top strand

“TTATCCGCTTAAGGGGATATTATAAGTTTTATCCTTTAGTGAGGATAA (double strand) [hipBA O1O2 operator]”: binds more weakly.

Reference: PMC3376134, “Regulation of the Escherichia coli HipBA Toxin-Antitoxin System by Proteolysis” (PLoS ONE, 2012)
